Measurements from patent US6670394B1, “Method for treating COPD” (SmithKline Beecham Corporation, priority 1999, dated 2003).
Some entries share one result that the patent states for a list of compounds.

Amino acid sequences for entries named in this document (tags omitted). Residues count along the entry.
UniProt P27815, 1-686 isoform P27815-3: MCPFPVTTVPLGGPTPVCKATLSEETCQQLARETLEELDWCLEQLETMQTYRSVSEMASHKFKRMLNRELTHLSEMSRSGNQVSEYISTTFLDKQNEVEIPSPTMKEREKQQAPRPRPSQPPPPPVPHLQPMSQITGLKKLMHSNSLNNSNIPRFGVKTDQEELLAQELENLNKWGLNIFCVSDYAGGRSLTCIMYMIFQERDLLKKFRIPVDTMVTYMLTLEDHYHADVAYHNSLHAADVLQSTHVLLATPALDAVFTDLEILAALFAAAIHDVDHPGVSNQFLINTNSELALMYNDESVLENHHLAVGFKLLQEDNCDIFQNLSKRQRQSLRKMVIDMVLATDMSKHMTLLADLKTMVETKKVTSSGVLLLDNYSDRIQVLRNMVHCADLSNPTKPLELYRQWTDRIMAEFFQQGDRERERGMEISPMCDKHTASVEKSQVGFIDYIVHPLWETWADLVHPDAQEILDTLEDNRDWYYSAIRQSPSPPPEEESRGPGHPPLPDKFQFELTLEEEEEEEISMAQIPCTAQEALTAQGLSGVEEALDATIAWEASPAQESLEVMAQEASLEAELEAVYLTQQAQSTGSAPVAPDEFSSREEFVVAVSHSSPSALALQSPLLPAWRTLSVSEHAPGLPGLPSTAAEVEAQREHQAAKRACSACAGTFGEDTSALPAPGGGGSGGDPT

Target: T1, low affinity form of PDE 4 (human monocyte PDE 4 / hrPDE) (Homo sapiens, UniProt P27815)
T1 construct: made in house; host or cells: yeast
Test: PDE 4 catalytic activity assay (low affinity form, LPDE 4)
Format: biochemical
Conditions: HPDE 4 IC50/LPDE 4 IC50; listed as cis-[4-cyano-4-(3-cyclopropyimethoxy-4-difluoromethoxyphenyl)cyclohexan-1-ol]

N#CC1(c2ccc(OC(F)F)c(OCC3CC3)c2)CCC(O)CC1 (stereo not drawn) [cis-[4-cyano-4-(3-cyclopropylmethoxy-4-difluoromethoxyphenyl)cyclohexan-1-ol]]
High/Low Ratio (IC50 high affinity form divided by IC50 low affinity form): ≥ 0.1
